Measurements reported in PubChem BioAssay AID493014 (National Center for Advancing Translational Sciences (NCATS), 2011).
The list shows a part of the results. The main result of the screen is listed elsewhere. These columns were measured beside it and carry no call. Most of these compounds were active or inconclusive in the main read-out, so they are no random draw. Potencies come from curve fits of mixed quality, noted in brackets.

assay: qHTS Assay to Find Inhibitors of Chronic Active B-Cell Receptor Signaling; details: ABC-DLBCL IkBa-CBG/CBR reporter, luminescence ratio (green luciferase fused to IkBa over red control in TMD8 lymphoma cells), 4 h; measured here: CBR red luminescence, cell number
In short: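 Cell line TMD8 (human ABC DLBCL), stably expressing tet-inducible CBG68-IkBa fusion and CBR; IMDM/0.5% FBS; cpd up to 46 uM; dox induction, 4 h, 37C/5% CO2; dual luminescence; green/red ratio; MG132 control.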

| Structure (SMILES) | AC50 |
| --- | --- |
| Cc1ccc(NC(=O)C(=O)NCCN2CCN(S(C)(=O)=O)CC2)cc1 | 20 µM [rising, single point] |
| O=c1cc(CN2CCN(c3ccc(F)cc3)CC2)nc2sccn12 | 4.61 µM [falling, single point] |
| CCc1c(O)nc(SCc2ccccc2)n(C(C)CC)c1=O (centres undefined) | 5.17 µM [falling, partial curve, poor fit] |
| COc1ccccc1NC(=O)COC(=O)CN1C(=O)C(=O)c2ccccc21 | 11.2 µM [falling, single point] |
| O=C(c1ccc(-c2cccc(Cl)c2Cl)o1)N1CCOCC1 | 0.631 µM [rising, full curve, poor fit] |
| O=C1NC(=O)/C(=C/c2ccccc2OCc2ccccc2)S1 | 35.5 µM [falling, single point] |
| CCOC(=O)c1c(N)sc2c1CCC1C(=O)N(C3CCCCC3)C(=O)C21 (centres undefined) | 2.91 µM [falling, full curve] |
| CCCn1nnnc1SCC(=O)NCc1ccc(OC)cc1 | 1.64 µM [rising, single point] |
| O=C1/C(=C/C=C/c2ccccc2)Oc2c1ccc(O)c2CN1CCN(CCO)CC1 | 10 µM [falling, partial curve] |
| Cc1ccccc1N1C(=O)c2ccccc2C1Nc1cccnc1 (centres undefined) | 18.4 µM [rising, single point] |
| O=C(CCCl)Nc1nnc(SCC(=O)NC2CCCC2)s1 | 14.1 µM [falling, partial curve, poor fit] |
| O=C(CCN1C(=O)/C(=C/c2ccccc2)SC1=S)NC1CCS(=O)(=O)C1 (centres undefined) | 14.1 µM [falling, partial curve] |
| CCOC(=O)c1sc(NC(=O)CSc2nc(C)cc(C(F)(F)F)n2)c(C#N)c1C | 6.51 µM [rising, single point] |
| Cc1cc(-c2ccc(C)c(S(=O)(=O)NCc3cccc(Br)c3)c2)on1 | 20 µM [falling, partial curve, poor fit] |
| COc1ccc(N(C)S(=O)(=O)c2cccc(C(=O)Nc3nc4ccccc4[nH]3)c2)cc1 | 35.5 µM [falling, single point] |
| N#Cc1cn(CC(=O)N2CCCC2)c2ccccc12 | 29.1 µM [falling, single point] |
| CC(C)CCNc1nc2c(c(=O)n(Cc3cccc(F)c3)c(=O)n2C)n1C | 25.1 µM [falling, single point] |
| O=C(/C=C/c1ccccc1)c1ccccc1 | 1.26 µM [falling, full curve, poor fit] |
| O=C(O)c1c(C(=O)O)c(-c2ccc(Cl)c(Cl)c2)n2c1CSC2 | 22.4 µM [falling, single point] |

Taken from above:
N#Cc1cn(CC(=O)N2CCCC2)c2ccccc12 – AC50: 29.1 µM [falling, single point]
Cc1ccccc1N1C(=O)c2ccccc2C1Nc1cccnc1 (centres undefined) – AC50: 18.4 µM [rising, single point]
